The results in this text go back to PMC8643467, “Appearance of peanut agglutinin in the blood circulation after peanut ingestion promotes endothelial secretion of metastasis-promoting cytokines” (Carcinogenesis, 2021).

Sequences of proteins named here, by UniProt entry; tags and fusion partners are left off. Residues count along the entry.
UniProt P43121, residues 24-646: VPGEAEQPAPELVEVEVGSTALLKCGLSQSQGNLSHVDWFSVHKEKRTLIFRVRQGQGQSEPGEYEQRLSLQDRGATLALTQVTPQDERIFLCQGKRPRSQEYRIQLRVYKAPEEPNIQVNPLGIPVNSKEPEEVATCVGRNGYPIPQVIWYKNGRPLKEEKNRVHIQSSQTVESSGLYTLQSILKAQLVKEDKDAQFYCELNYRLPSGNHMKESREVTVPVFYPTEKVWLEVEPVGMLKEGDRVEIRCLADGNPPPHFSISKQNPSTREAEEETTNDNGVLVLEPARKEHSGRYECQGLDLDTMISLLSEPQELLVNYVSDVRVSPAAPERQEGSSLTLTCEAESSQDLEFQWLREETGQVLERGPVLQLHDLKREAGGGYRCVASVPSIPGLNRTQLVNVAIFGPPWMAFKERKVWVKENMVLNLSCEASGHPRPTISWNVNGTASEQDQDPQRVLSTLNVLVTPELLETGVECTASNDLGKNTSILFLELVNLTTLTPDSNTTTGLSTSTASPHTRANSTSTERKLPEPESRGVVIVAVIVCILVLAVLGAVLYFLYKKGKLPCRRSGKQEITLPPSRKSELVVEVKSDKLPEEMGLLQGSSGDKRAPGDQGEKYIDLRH

Results are given in words; binding and its absence hold for the method and conditions named. In cells and extracts the contact can be indirect. Some binding calls cover weakened binding; strength is not graded here. Where a sequence is shown, tags or fusion partners need not be part of it.

This test deals with T1, Peanut agglutinin (PNA), agarose-conjugated (Arachis hypogaea) (UniProt P02872).
T1 sequence: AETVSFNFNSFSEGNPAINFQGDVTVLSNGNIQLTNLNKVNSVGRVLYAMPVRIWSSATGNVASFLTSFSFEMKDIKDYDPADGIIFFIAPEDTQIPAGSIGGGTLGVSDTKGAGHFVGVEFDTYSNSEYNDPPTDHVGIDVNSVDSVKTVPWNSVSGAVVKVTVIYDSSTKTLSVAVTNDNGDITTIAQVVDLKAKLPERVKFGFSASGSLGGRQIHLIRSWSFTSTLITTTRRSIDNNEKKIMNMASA
In words: pull-down; HUVEC lysate (1% Triton X-100 in PBS) with PNA-agarose beads at 4°C overnight; beads then incubated with PBS, 5U PNGase-F or 10mM O-glycanase at 37°C overnight, washed, bound proteins analysed by MCAM immunoblot; only the target purified.

Turning to “MCAM (CD146) treated with O-glycanase (from UniProt P43121 24-646) (receptor)”, the binding entry is “binds”.

For “MCAM (CD146), melanoma cell adhesion molecule (from UniProt P43121 24-646) (receptor)”, the binding result is on record as “binds”.
